Measured values taken from article PMC4638191, “Multicomponent reaction-based synthesis and biological evaluation of tricyclic heterofused quinolines with multi-trypanosomatid activity” (European Journal of Medicinal Chemistry, 2015).

Test system: bloodstream form T. brucei (strain 221)
Assay: Trypanocidal activity against cultured bloodstream form T. brucei (resazurin)
Conditions: ratio EeAChE IC50 / T. brucei IC50

| Structure (SMILES) | fold more potent against T. brucei than against EeAChE |
| --- | --- |
| Clc1ccc2nc(-c3cccs3)c(CCCN3CCCC3)cc2c1 [Compound 49, N-{3-[6-Chloro-2-(2-thienyl)quinolin-3-yl]propyl}pyrrolidine] | ~8 fold |
| NCc1ccc(-c2nc3ccc(Cl)cc3c3c2CCCO3)cc1 [Compound 39, 4-{9-Chloro-3,4-dihydro-2H-pyrano[3,2-c]quinolin-5-yl}benzylamine] | > 20 fold |
